Data as given in PubChem BioAssay AID504764 (Drosophila RNAi Screening Center, 2011).
Screen: 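Knock-downs that raise or lower a Notch target reporter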 (primary screen). Cells: Drosophila Kc167 cells. Reagent: long dsRNA against Drosophila genes. Duration: about 5 days (4 days dsRNA, then 24 h after transfection). Challenge: transfection of constitutively active membrane-tethered Notch lacking the extracellular domain, read 24 h later. Read-out: 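Firefly luciferase from an E(spl)m3 reporter with active Notch, plus control-promoter and uninduced reporter wells for normalisation; unnormalised counts, duplicate wells a and b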. Reading the numbers: induced reporter light, run 1, well a and induced reporter light, run 1, well b: higher = more light from the Notch target reporter with active Notch; control promoter light, run 1, well a and control promoter light, run 1, well b: higher = more light from the viral control promoter (cell number, transfection, viability); uninduced reporter light, run 1, well a: higher = more light from the Notch target reporter without active Notch. Active means: 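Wells with low control signal or poorly matching duplicates excluded; duplicates averaged; per source plate, z beyond ±2 for induced/control log2 ratio or beyond ±1.8 for induced/uninduced marks a hit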. Meaning of the calls: active = modifier hit (raised or lowered Notch signal); inactive = not a hit.
In all, the deposit lists about 22,000 reagents; shown is an unselected part of those that have a named target and a result. In the full data, 403 (1.9%) got an active call. 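Unnormalised raw counts per well; ratio z-scores behind the hit calls and whether each hit raises or lowers signal are not deposited.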 A plus sign joins genes that one reagent is predicted to hit. Reagent sequences are not shown. Not stated in the record: the amount of reagent.

| target gene | DRSC id | induced reporter light, run 1, well a | induced reporter light, run 1, well b | control promoter light, run 1, well a | control promoter light, run 1, well b | uninduced reporter light, run 1, well a | activity call |
| --- | --- | --- | --- | --- | --- | --- | --- |
| Nle (Notchless) | DRSC00763 | 1.20e5 | 1.12e5 | 1.07e5 | 83130 | 9695 | inactive |
| CG18661 | DRSC02690 | 1.20e5 | 1.65e5 | 85085 | 1.03e5 | 22030 | inactive |
| CG11413 + CG4622 | DRSC04109 | 1.43e5 | 1.37e5 | 1.92e5 | 1.68e5 | 10645 | inactive |
| Rilpl (Rab interacting lysosomal protein like) | DRSC18494 | 1.71e5 | 1.85e5 | 2.36e5 | 2.25e5 | 12138 | inactive |
| Prp6 (pre-mRNA processing factor 6) | DRSC10724 | 1.22e5 | 1.02e5 | 56685 | 73195 | 6855 | inactive |
| Nep2 (Neprilysin 2) | DRSC12126 | 1.49e5 | 1.47e5 | 1.20e5 | 1.03e5 | 9285 | inactive |
| CG11158 | DRSC19389 | 46380 | 42635 | 40755 | 39105 | 2610 | active |
| C1GalTA (Core 1 Galactosyltransferase A) | DRSC03246 | 2.88e5 | 2.55e5 | 1.99e5 | 1.97e5 | 17710 | inactive |
| CG5916 | DRSC15917 | 2.04e5 | 1.98e5 | 2.76e5 | 2.72e5 | 18170 | inactive |
| CG30192 | DRSC03977 | 72665 | 69445 | 82290 | 76830 | 7570 | inactive |
| PPP4R2r (Protein phosphatase 4 regulatory subunit 2-related protein) | DRSC18695 | 1.44e5 | 1.29e5 | 3.05e5 | 2.82e5 | 9580 | inactive |
| ear (ENL/AF9-related) | DRSC15675 | 86150 | 80685 | 35905 | 32540 | 7150 | inactive |
| Rcc1 (Regulator of chromosome condensation 1) | DRSC09684 | 1.20e5 | 96025 | 69940 | 25845 | 7670 | inactive |

Limited to “uninduced reporter light, run 1, well a” (2 entries from above):
Prp6 (pre-mRNA processing factor 6) [DRSC10724] = 6855
Nep2 (Neprilysin 2) [DRSC12126] = 9285

The listing continues.
| target gene | DRSC id | induced reporter light, run 1, well a | induced reporter light, run 1, well b | control promoter light, run 1, well a | control promoter light, run 1, well b | uninduced reporter light, run 1, well a | activity call |
| --- | --- | --- | --- | --- | --- | --- | --- |
| CG9130 + CG9133 | DRSC08624 | 1.02e5 | 85620 | 1.05e5 | 1.61e5 | 4970 | inactive |
| CG9130 + CG9133 | DRSC08625 | 81775 | 87970 | 1.50e5 | 1.49e5 | 6770 | inactive |
| Aef1 (Adult enhancer factor 1) | DRSC11605 | 1.10e5 | 90960 | 71700 | 67945 | 5920 | inactive |
| sphinx2 | DRSC22188 | – | – | – | – | – | inactive |
| kl-5 (retired record) | DRSC20707 | 1.04e5 | 1.03e5 | 1.02e5 | 1.19e5 | 10915 | inactive |
| kl-5 (retired record) | DRSC20736 | 2.49e5 | 2.34e5 | 3.48e5 | 2.93e5 | 15125 | inactive |
| kl-5 (retired record) | DRSC20773 | 2.17e5 | 1.72e5 | 3.34e5 | 2.63e5 | 14720 | inactive |
| kl-5 (retired record) | DRSC21161 | 75030 | 75325 | 1.16e5 | 1.01e5 | 7795 | inactive |
